According to the supplement of paper PMC10849652:
Some of the results follow.

Protein sequences, listed by entry. Tags and fused reporters are not part of them. Lines headed by an entry give the natural chain unless they say otherwise; changes in a name come on top.
UniProt Q15032: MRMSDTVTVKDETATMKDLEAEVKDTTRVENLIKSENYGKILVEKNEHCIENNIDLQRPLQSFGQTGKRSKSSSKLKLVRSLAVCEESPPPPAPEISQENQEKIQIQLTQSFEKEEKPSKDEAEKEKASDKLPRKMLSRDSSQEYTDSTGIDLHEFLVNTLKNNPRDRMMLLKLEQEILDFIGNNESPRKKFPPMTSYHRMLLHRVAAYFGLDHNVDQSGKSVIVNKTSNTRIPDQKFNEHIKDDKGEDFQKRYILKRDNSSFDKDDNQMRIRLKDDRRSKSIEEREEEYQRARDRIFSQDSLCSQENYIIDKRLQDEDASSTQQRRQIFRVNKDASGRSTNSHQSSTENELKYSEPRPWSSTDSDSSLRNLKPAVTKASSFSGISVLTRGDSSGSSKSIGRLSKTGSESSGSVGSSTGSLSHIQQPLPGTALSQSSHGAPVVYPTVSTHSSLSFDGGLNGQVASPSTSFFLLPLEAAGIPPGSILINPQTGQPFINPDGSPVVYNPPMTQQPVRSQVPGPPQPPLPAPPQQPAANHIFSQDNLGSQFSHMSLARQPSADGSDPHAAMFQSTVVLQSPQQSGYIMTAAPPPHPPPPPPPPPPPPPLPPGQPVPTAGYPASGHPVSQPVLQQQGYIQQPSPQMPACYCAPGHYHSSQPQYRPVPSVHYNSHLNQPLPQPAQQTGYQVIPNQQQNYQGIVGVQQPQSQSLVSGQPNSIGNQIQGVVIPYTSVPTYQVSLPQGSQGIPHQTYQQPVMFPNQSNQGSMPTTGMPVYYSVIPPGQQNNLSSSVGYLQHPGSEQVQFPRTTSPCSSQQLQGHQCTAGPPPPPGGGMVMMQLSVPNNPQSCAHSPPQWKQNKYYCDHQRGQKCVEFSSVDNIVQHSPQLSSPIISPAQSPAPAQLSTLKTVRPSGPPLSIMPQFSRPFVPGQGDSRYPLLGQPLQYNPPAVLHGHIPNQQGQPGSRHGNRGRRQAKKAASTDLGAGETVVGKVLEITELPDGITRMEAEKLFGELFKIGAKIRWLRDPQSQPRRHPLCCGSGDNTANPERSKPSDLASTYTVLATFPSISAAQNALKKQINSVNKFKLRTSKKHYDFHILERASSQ
UniProt P61106, whole entry, looked up: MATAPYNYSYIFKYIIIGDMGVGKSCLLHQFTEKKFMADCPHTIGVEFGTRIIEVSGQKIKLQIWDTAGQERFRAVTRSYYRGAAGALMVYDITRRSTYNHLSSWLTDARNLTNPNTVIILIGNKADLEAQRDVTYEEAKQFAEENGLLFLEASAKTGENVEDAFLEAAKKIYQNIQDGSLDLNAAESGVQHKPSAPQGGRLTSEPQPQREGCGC
UniProt P49023, whole entry, looked up: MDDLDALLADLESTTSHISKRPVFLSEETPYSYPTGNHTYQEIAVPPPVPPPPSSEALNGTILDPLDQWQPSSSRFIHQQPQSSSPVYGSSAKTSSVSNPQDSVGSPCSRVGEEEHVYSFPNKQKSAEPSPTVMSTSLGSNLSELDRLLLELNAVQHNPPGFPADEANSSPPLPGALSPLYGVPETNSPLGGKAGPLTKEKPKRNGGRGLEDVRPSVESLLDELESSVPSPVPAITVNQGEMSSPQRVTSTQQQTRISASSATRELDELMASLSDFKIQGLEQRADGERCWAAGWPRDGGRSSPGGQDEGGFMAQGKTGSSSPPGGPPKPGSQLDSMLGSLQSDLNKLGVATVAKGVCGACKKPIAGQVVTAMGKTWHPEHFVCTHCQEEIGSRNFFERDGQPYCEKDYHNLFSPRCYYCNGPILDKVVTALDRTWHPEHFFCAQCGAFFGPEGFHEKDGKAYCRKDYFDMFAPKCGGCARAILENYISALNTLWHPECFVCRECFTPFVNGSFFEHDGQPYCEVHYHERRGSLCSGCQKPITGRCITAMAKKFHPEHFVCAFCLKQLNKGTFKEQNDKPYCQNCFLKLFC
UniProt Q99638: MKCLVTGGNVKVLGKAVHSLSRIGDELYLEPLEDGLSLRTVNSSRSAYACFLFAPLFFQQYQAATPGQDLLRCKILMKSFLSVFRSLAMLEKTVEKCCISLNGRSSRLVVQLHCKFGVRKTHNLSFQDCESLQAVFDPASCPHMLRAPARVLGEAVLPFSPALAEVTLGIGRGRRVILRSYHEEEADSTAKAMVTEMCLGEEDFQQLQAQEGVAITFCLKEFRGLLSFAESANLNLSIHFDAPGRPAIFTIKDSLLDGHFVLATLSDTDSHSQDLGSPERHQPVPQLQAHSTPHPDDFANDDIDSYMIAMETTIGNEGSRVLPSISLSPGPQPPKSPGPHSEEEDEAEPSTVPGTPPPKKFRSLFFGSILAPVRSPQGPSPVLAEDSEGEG
UniProt P61225: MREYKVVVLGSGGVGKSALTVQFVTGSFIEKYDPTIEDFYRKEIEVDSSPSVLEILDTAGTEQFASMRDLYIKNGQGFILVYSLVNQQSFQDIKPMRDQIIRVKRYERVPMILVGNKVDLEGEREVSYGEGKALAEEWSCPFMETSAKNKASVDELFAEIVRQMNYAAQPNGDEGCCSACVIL
UniProt Q15907: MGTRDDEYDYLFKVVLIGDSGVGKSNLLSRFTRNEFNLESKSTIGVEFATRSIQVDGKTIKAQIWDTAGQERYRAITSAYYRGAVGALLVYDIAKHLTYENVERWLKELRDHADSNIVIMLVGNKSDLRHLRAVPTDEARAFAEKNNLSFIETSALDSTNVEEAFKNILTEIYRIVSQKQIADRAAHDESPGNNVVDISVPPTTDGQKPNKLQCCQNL
UniProt P43487, whole entry, looked up: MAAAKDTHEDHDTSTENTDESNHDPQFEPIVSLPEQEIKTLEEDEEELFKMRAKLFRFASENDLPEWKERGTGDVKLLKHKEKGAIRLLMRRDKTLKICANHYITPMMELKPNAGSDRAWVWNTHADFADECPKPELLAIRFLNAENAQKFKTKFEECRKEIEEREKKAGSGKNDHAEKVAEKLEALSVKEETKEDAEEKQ
UniProt Q6GYQ0: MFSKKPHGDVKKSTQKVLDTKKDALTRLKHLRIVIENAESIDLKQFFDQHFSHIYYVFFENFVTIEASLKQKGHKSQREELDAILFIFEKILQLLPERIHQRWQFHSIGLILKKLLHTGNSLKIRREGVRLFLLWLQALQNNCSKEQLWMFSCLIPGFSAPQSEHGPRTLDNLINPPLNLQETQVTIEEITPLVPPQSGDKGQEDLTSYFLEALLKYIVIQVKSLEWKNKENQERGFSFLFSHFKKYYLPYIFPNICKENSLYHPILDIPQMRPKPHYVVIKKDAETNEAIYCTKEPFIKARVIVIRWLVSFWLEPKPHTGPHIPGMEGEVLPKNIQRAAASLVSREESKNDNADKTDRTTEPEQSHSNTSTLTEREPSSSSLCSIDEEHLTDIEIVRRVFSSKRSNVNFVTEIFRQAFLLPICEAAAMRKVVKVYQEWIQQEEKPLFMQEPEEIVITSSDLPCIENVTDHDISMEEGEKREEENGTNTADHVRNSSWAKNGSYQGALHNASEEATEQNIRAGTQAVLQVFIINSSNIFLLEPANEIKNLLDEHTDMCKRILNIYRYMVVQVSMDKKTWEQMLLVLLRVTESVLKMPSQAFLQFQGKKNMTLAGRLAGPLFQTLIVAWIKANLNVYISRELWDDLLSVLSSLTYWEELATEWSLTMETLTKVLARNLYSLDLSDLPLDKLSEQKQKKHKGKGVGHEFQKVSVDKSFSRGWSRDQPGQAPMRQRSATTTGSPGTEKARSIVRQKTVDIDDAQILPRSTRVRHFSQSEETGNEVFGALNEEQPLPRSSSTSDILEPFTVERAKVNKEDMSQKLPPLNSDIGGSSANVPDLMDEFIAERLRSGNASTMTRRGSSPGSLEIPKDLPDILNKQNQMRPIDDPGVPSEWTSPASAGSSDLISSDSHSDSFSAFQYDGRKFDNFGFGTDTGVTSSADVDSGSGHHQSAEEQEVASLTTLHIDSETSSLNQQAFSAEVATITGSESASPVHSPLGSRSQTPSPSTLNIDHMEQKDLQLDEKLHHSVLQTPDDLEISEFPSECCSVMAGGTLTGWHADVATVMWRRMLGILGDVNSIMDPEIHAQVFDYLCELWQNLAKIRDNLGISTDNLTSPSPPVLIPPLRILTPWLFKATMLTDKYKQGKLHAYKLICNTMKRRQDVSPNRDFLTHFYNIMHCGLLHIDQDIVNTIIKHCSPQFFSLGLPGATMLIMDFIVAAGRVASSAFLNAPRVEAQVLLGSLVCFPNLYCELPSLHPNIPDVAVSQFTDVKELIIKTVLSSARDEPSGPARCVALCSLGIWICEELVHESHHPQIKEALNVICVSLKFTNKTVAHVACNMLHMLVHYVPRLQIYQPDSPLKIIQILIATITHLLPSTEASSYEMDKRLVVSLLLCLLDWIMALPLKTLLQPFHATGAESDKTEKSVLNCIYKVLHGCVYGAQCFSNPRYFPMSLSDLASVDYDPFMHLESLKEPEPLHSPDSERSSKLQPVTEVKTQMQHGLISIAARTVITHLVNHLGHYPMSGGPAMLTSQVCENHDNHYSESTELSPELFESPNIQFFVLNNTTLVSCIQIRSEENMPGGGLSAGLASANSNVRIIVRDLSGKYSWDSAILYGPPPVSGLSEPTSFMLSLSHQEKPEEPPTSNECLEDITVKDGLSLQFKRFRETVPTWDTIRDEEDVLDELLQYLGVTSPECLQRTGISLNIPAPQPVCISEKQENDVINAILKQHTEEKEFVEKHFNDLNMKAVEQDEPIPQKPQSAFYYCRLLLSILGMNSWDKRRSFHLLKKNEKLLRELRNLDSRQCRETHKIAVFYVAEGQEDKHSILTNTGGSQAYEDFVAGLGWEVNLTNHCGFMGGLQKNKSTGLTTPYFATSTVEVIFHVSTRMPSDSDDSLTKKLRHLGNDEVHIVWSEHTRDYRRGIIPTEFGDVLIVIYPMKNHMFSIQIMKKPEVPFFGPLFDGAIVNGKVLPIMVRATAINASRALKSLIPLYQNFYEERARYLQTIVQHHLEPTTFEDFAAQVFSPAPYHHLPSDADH
UniProt Q53S08: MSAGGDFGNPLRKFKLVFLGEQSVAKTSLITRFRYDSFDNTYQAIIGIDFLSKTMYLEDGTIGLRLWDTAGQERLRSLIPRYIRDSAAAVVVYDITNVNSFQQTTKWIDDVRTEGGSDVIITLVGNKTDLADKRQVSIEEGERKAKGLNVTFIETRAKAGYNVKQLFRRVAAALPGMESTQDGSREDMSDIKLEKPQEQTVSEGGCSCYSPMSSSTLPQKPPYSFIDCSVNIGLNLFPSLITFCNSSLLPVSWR
UniProt Q8WU10: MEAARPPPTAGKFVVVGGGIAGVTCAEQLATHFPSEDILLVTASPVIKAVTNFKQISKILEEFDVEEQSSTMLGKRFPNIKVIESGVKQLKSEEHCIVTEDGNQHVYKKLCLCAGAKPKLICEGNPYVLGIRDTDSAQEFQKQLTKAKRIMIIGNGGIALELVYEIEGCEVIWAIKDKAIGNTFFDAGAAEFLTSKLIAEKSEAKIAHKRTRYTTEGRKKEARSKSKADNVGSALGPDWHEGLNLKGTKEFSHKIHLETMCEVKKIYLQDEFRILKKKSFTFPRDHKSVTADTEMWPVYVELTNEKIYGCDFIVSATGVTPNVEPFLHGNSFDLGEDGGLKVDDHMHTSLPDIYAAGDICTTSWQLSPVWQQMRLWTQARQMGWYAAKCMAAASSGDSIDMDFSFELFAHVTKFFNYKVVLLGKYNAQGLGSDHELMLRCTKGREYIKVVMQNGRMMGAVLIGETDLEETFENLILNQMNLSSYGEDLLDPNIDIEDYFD
UniProt Q7Z7A4: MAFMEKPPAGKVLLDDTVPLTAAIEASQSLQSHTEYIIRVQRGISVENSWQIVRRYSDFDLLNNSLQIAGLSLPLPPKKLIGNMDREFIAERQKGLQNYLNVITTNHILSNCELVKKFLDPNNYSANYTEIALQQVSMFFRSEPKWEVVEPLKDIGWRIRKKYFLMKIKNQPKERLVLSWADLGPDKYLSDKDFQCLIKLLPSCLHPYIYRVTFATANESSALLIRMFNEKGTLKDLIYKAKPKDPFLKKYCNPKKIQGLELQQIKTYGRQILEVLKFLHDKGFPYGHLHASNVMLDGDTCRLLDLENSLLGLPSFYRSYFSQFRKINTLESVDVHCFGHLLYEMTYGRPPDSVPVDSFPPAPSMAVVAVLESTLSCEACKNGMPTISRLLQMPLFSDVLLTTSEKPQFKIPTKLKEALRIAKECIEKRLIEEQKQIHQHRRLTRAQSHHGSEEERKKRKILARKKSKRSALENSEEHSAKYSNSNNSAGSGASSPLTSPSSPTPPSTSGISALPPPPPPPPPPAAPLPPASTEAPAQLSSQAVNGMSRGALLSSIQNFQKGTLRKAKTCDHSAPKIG
UniProt Q9BTL3: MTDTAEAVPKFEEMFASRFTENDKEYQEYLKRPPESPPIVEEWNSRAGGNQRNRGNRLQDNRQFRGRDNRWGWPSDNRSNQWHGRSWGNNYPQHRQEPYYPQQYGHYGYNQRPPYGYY
UniProt Q969Q5: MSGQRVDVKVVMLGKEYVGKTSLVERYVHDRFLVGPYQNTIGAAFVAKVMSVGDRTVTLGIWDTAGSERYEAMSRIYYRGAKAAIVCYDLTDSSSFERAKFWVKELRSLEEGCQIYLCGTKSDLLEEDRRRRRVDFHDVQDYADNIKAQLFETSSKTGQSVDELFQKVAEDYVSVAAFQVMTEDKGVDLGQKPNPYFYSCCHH

Key:
Assay in all cases: log2 fold change, soluble protein after heating vs DMSO (PISA); higher = thermal stabilisation; K562 lysate, 10 uM; active = over 0.2 and 3.5 SD of the protein, either way, in both replicates (recomputed)
[1] = compound: CCCS(=O)(=O)Nc1ccc(F)c(C(=O)c2c[nH]c3ncc(-c4ccc(Cl)cc4)cc23)c1F [vemurafenib]
Method in brief: (§1)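 Dounce homogenisation of K562 pellets in PBS pH 7.4 with 1 mM MgCl2 produced a crude extract, used at 1 mg/mL protein. Exposure to 10 μM compound lasted 30 min, and aliquots were then heated for 3 min across 48°C-58°C, pooled and brought to 0.5% NP-40 at 4°C. The supernatant after 21,000xg for 90 min was quantified by TMTpro 16plex LC-MS/MS with channel sums equalised. Duplicate values are given as log-two fold change in thermal stability relative to solvent controls.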

[2] = compound: CCCS(=O)(=O)Nc1ccc(F)c(C(=O)c2c[nH]c3ncc(Cl)cc23)c1F
Method in brief: as §1

[3] = compound: CCN(CCCOc1ccc2c(Nc3cc(CC(=O)Nc4cccc(F)c4)[nH]n3)ncnc2c1)CCOP(=O)(O)O [barasertib]
Method in brief: as §1

[4] = compound: CC[C@@H]1C(=O)N(C)c2cnc(Nc3ccc(C(=O)NC4CCN(C)CC4)cc3OC)nc2N1C1CCCC1
Method in brief: as §1

[5] = compound: CC[C@@H]1C(=O)N(C)c2cnc(Nc3ccc(C(=O)N[C@H]4CC[C@H](N5CCN(CC6CC6)CC5)CC4)cc3OC)nc2N1C(C)C [volasertib]
Method in brief: as §1

[6] = compound: CCn1c(C(=O)N(C2CC2)C2CC2)cc2c3c(ncn3C)c(Nc3cc(C)n(C)n3)nc21
Method in brief: as §1

[7] = compound: CCn1cc(-c2ccnc3[nH]c(-c4cccc(CN(C)C)c4)cc23)c(-c2ccc(NC(=O)N(C)C)cc2)n1
Method in brief: as §1

[8] = compound: CN1CCC(CNc2ccc3ncc(-c4cccc(OC(F)(F)F)c4)n3n2)CC1
Method in brief: as §1

[9] = compound: CN1CCN(CCOc2cc(OC3CCOCC3)c3c(Nc4c(Cl)ccc5c4OCO5)ncnc3c2)CC1 [saracatinib]
Method in brief: as §1

[10] = compound: CN1CCN(c2nc(C3=C(c4c[nH]c5ccccc45)C(=O)NC3=O)c3ccccc3n2)CC1 [sotrastaurin]
Method in brief: as §1

Target	log2 fold change [1]	log2 fold change [2]	log2 fold change [3]	log2 fold change [4]	log2 fold change [5]	log2 fold change [6]	log2 fold change [7]	log2 fold change [8]	log2 fold change [9]	log2 fold change [10]
RAB5B (UniProt P61020)	inactive: 0.012	inactive: 0.005	inactive: 0.061	inactive: 0.055	inactive: 0.065	inactive: -0.046	inactive: -0.116	inactive: 0.011	inactive: 0.002	inactive: 0.037
PYCR3 (UniProt Q53H96)	inactive: -0.003	inactive: 0	inactive: 0.045	inactive: -0.011	inactive: 0.015	inactive: -0.012	inactive: 0.002	inactive: 0.004	inactive: -0.001	inactive: -0.024
R3HDM1 isoform 3 (UniProt Q15032)	inactive: 0.114	inactive: -0.118	inactive: 0.106	inactive: 0.059	inactive: 0.024	inactive: 0.041	inactive: 0.219	inactive: 0.052	inactive: -0.037	inactive: 0.064
RAPGEF2, A0A2R8YGD3	inactive: 0	inactive: 0.013	inactive: 0.144	inactive: 0.093	inactive: -0.015	inactive: -0.029	inactive: 0.325	inactive: 0.05	inactive: 0.01	inactive: -0.003
PYM1 (UniProt Q9BRP8)	inactive: -0.033	inactive: 0.002	inactive: 0.025	inactive: 0.062	inactive: 0.024	inactive: 0	inactive: -0.017	inactive: 0.006	inactive: 0	inactive: 0.001
RAB14 (UniProt P61106)	inactive: -0.001	inactive: -0.004	inactive: 0.013	inactive: 0.024	inactive: 0.012	inactive: -0.026	inactive: -0.095	inactive: 0.054	inactive: -0.002	inactive: -0.007
PXN isoform 3 (UniProt P49023)	inactive: -0.008	inactive: 0.061	inactive: -0.071	inactive: 0.02	inactive: 0.023	inactive: 0.008	inactive: 0.001	inactive: 0.027	inactive: 0.033	inactive: -0.046
RANBP17 (UniProt Q9H2T7)	inactive: 0.108	inactive: 0.009	inactive: -0.33	inactive: -0.123	inactive: 0.014	inactive: -0.024	inactive: -0.034	inactive: 0.173	inactive: 0.012	inactive: 0.116
RAB22A (UniProt Q9UL26)	inactive: 0.018	inactive: 0.018	inactive: 0.038	inactive: 0.041	inactive: -0.019	inactive: -0.009	inactive: -0.025	inactive: 0.065	inactive: -0.011	inactive: 0.047
RABGAP1 (UniProt Q9Y3P9)	inactive: -0.019	inactive: 0.002	inactive: 0.015	inactive: 0.015	inactive: -0.007	inactive: 0.002	inactive: 0.027	inactive: -0.006	inactive: 0.004	inactive: 0.025
RAB3A (UniProt P20336)	inactive: -0.074	inactive: -0.095	inactive: 0.007	inactive: -0.052	inactive: -0.158	inactive: 0.033	inactive: 0	inactive: 0.014	inactive: 0.006	inactive: -0.035
RAP1GDS1 isoform 5 (UniProt P52306)	inactive: 0.024	inactive: 0.003	inactive: 0.047	inactive: -0.004	inactive: -0.005	inactive: 0.002	inactive: -0.109	inactive: 0.045	inactive: 0.008	inactive: 0.031
RAD9A (UniProt Q99638)	inactive: -0.043	inactive: 0.006	inactive: 0.038	inactive: -0.063	inactive: -0.001	inactive: 0.04	inactive: -0.038	inactive: 0.038	inactive: 0.009	inactive: 0.052
RAB7A (UniProt P51149)	inactive: -0.019	inactive: -0.013	inactive: -0.015	inactive: 0.033	inactive: -0.008	inactive: -0.002	inactive: -0.012	inactive: 0.06	inactive: -0.011	inactive: 0.001
RAP2B (UniProt P61225)	inactive: 0.014	inactive: 0.032	inactive: 0.104	inactive: 0.031	inactive: 0.023	inactive: 0.069	inactive: -0.079	inactive: -0.049	inactive: 0.088	inactive: -0.012
RAB11B (UniProt Q15907)	inactive: 0	inactive: -0.057	inactive: 0.174	inactive: 0.019	inactive: 0.007	inactive: -0.006	inactive: -0.104	inactive: 0.076	inactive: -0.011	inactive: 0.009
RAB23 (UniProt Q9ULC3)	inactive: 0.026	inactive: 0.023	inactive: 0.002	inactive: -0.066	inactive: -0.064	inactive: -0.055	inactive: -0.076	inactive: 0.072	inactive: -0.025	inactive: 0.076
RANBP1 (UniProt P43487)	inactive: -0.015	inactive: -0.027	inactive: -0.055	inactive: -0.024	inactive: 0.035	inactive: -0.031	inactive: -0.012	inactive: 0.006	inactive: -0.016	inactive: -0.019
RAB4B isoform 2 (UniProt P61018)	inactive: -0.031	inactive: -0.006	inactive: 0.104	inactive: -0.037	inactive: 0.012	inactive: 0.026	inactive: -0.033	inactive: 0.045	inactive: 0.055	inactive: 0.044
RAB9A (UniProt P51151)	inactive: -0.024	inactive: 0.008	inactive: -0.006	inactive: 0.019	inactive: -0.033	inactive: -0.029	inactive: -0.015	inactive: -0.011	inactive: 0.032	inactive: 0.036
RALB isoform 2 (UniProt P11234)	inactive: 0.026	inactive: -0.03	inactive: 0.049	inactive: 0.033	inactive: -0.007	inactive: 0.068	inactive: -0.145	inactive: 0.151	inactive: -0.001	inactive: -0.002
RALGAPA1 isoform 6 (UniProt Q6GYQ0)	inactive: -0.008	inactive: 0.017	inactive: 0.196	inactive: 0.02	inactive: -0.03	inactive: -0.007	active: -0.377	inactive: 0.074	inactive: 0.049	inactive: 0.03
RAB6D (UniProt Q53S08)	inactive: 0.005	inactive: -0.033	inactive: 0.15	active: 0.289	inactive: 0.033	inactive: -0.049	inactive: -0.065	inactive: 0.018	inactive: -0.053	inactive: -0.025
QKI (UniProt Q96PU8)	inactive: -0.006	inactive: 0.024	inactive: -0.027	inactive: 0.087	inactive: -0.021	inactive: 0.001	inactive: -0.196	inactive: 0.107	inactive: 0.047	inactive: 0
PYROXD1 (UniProt Q8WU10)	inactive: 0.011	inactive: 0.068	inactive: 0.076	inactive: 0.044	inactive: -0.098	inactive: -0.011	inactive: 0.1	inactive: 0.249	inactive: 0.017	inactive: -0.014
RAB13 (UniProt P51153)	inactive: -0.045	inactive: -0.114	inactive: -0.097	inactive: -0.183	inactive: 0	inactive: 0.072	inactive: 0.01	inactive: 0.025	inactive: -0.034	inactive: 0.09
PXK (UniProt Q7Z7A4)	inactive: 0.028	inactive: 0.019	inactive: 0.042	inactive: -0.003	inactive: -0.034	inactive: 0.022	inactive: -0.066	inactive: 0.086	inactive: -0.03	inactive: -0.036
RAMAC (UniProt Q9BTL3)	inactive: -0.069	inactive: 0.035	inactive: -0.05	inactive: 0.015	inactive: 0.025	inactive: 0	inactive: 0.059	inactive: -0.02	inactive: 0.017	inactive: -0.005
RAB33B (UniProt Q9H082)	inactive: -0.075	inactive: 0.007	inactive: -0.018	inactive: -0.016	inactive: 0.114	inactive: -0.09	inactive: 0.035	inactive: 0.202	inactive: -0.005	–
RAB24 (UniProt Q969Q5)	inactive: 0.043	inactive: 0.028	inactive: -0.008	inactive: 0.077	inactive: 0.048	inactive: 0.013	inactive: 0.005	inactive: 0.019	inactive: 0.036	inactive: 0.024

Copied from above (2 entries):
Target	log2 fold change [1]	log2 fold change [2]	log2 fold change [3]	log2 fold change [4]	log2 fold change [5]	log2 fold change [6]	log2 fold change [7]	log2 fold change [8]	log2 fold change [9]	log2 fold change [10]
RABGAP1 (UniProt Q9Y3P9)	inactive: -0.019	inactive: 0.002	inactive: 0.015	inactive: 0.015	inactive: -0.007	inactive: 0.002	inactive: 0.027	inactive: -0.006	inactive: 0.004	inactive: 0.025
RAB3A (UniProt P20336)	inactive: -0.074	inactive: -0.095	inactive: 0.007	inactive: -0.052	inactive: -0.158	inactive: 0.033	inactive: 0	inactive: 0.014	inactive: 0.006	inactive: -0.035
